Data on 42 sequences can be found in publication PMC7819943, “Rice protein-binding microarrays: a tool to detect cis-acting elements near promoter regions in rice”.

Protein sequences, listed by entry. Tags and fused reporters are not part of them.
UniProt Q0JBA9, entry or part of it: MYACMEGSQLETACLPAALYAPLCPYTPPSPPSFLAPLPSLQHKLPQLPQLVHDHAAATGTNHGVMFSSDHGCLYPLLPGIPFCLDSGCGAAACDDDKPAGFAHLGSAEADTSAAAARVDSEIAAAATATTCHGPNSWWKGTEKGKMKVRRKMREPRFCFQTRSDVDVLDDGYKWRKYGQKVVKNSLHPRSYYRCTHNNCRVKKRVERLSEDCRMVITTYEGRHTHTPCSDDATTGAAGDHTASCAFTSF

The list shows a part of the results.

This test has as its target OsWRKY34 (Oryza sativa, UniProt Q0JBA9 1-250). Kind of test: protein-binding microarray (RPBM); PBS, 2% BSA, 51.3 ng/ul salmon testes DNA, 50 uM zinc acetate, 200 nM TF, 25 C, 1 h; high values mean tight binding. The following applies: protein: recombinant; tags: N-terminal polyhistidine and DsRed monomer fusion (pET32a); label: CyDye5-dUTP incorporated in the synthesized complementary strand; 3' TTTTT single-stranded linker to array surface; dsDNA, one strand shown. Put shortly:
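In PBS with 2% BSA, salmon testes DNA and 50 µM zinc acetate, 200 nM protein was incubated on a custom Agilent array at 25 °C for 1 h and then washed off. The array had been made double-stranded by primer extension with Cy5-dUTP and blocked with 2% BSA. The proteins were transcription factors fused N-terminally to polyhistidine and DsRed, expressed in E. coli BL21-CodonPlus and purified on Ni–NTA. The binding signal is per-feature fluorescence intensity (arbitrary units) from an Axon 4000B scanner.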
Turning to “CGACATTGCTCCATCTCTCCTTCACGGGCCAACATGTACACGGAGTCACCTAGTGCAG”, the binding signal was 9250 fluorescence intensity (a.u.).

Regarding “CATCATCACATCCAAAACTTTTATACACACGTAAACTTTCCGGAGTCACCTAGTGCAG”, the binding signal is 10300 fluorescence intensity (a.u.).

As for “GGTACGCATTTCAACTTACTACTGTATCTGTATAACTTACCGGAGTCACCTAGTGCAG”, the binding signal was 9010 fluorescence intensity (a.u.).

For the sequence “TTTTTTAATAGATGACGCCGTTGACCTTTTCTCACATGTTCGGAGTCACCTAGTGCAG”, the binding signal is 15100 fluorescence intensity (a.u.).

As for “CATCGGATATTGTATTATGGTGTTGTATGGGTTGTTCGGGCGGAGTCACCTAGTGCAG”, the binding signal was 14000 fluorescence intensity (a.u.).

For the sequence “GTTGGGGTGAAATTTCTTGGCGATGGCGCCGTACTCCTTGCGGAGTCACCTAGTGCAG”, the binding signal was 8510 fluorescence intensity (a.u.).

On to “TCCGGCCCATTAATCTCGGCCCAACATCTCGTTCTCACCTCGGAGTCACCTAGTGCAG”, for which the binding signal was 11900 fluorescence intensity (a.u.).

As to “ACTTCGTACCCTTAGACTGTAATGATTTTTTTTAAAAAAACGGAGTCACCTAGTGCAG”, the binding signal was 9000 fluorescence intensity (a.u.).

In the case of “TTGGTCATAGTTGCTTGGATAATTTGACCAAGGAAGATGGCGGAGTCACCTAGTGCAG”, the binding signal is 8500 fluorescence intensity (a.u.).

As for “CCGTTACGTTTTCCGTTCCCGTTCCAGCCGCGTTTCCTCTCGGAGTCACCTAGTGCAG”, the binding signal is 11100 fluorescence intensity (a.u.).

In the case of “GCTTCTCACTCTGAATATCTGATTTTTTTTTAAAAAAAAACGGAGTCACCTAGTGCAG”, the binding signal is 8850 fluorescence intensity (a.u.).

For the sequence “GCCTGCCTCTTTCTTCTTCTCTTACGAAACCAAAACAACACGGAGTCACCTAGTGCAG”, the binding signal is 8150 fluorescence intensity (a.u.).

On to “TTTTTAATTTTATTTATACTCAATTTATCATGCACTAATGCGGAGTCACCTAGTGCAG”, for which the binding signal is 10800 fluorescence intensity (a.u.).

For “GTGTTTTTTTTCTATTTTTCTTCCTGTTTCTTTTGTTTTTCGGAGTCACCTAGTGCAG”, the binding signal was 12700 fluorescence intensity (a.u.).

Take “CGACGACGGCTTCCCGGCGCCGCGCCTCTTCTCGCAGGGCCGGAGTCACCTAGTGCAG”: the binding signal was 8460 fluorescence intensity (a.u.).

Consider “TTACCTTTATATATTTTTTCCAACTAGCTGCTGCATTTTACGGAGTCACCTAGTGCAG”, for which the binding signal was 9070 fluorescence intensity (a.u.).

In the case of “ACTTAGCACTTGATTACATATATTTTGGTCGTGTAGTTGTCGGAGTCACCTAGTGCAG”, the binding signal is 11300 fluorescence intensity (a.u.).

Take “GCGACTCATTGGGCACTTCCCTACCAACTCCGTGAGTTATCGGAGTCACCTAGTGCAG”: the binding signal is 8670 fluorescence intensity (a.u.).

Turning to “GTCTTATTTAAATTTTTTTGAAATGTTTGTTGACCATTCGCGGAGTCACCTAGTGCAG”, the binding signal was 8700 fluorescence intensity (a.u.).

Regarding “GTACGGAACAAAACACCCGCATTTCACCCGCATTTCTTAACGGAGTCACCTAGTGCAG”, the binding signal is 9610 fluorescence intensity (a.u.).

Turning to “TGAGTCAGTGGTTGGTCATCGTTGTCCGCTTTGTTTGGACCGGAGTCACCTAGTGCAG”, the binding signal is 9290 fluorescence intensity (a.u.).

On to “CGCGGATCCTTCGTGGGTGGTGATGGGAGGTGCGGATCCGCGGAGTCACCTAGTGCAG”, for which the binding signal is 11800 fluorescence intensity (a.u.).

As to “GGCTCATGCATGGCGCTATGTACTGTTAATTCCGTTCCTTCGGAGTCACCTAGTGCAG”, the binding signal was 8850 fluorescence intensity (a.u.).

Take “CCTACTGTGGGCCCCACACAAATTCCTCCTCACATCTCCTCGGAGTCACCTAGTGCAG”: the binding signal is 8450 fluorescence intensity (a.u.).

For the sequence “CGGGTTGGCATCGTTGTCGTTGTCGAGGAGGCTGAGGAGGCGGAGTCACCTAGTGCAG”, the binding signal was 8510 fluorescence intensity (a.u.).

For “CATATTATGATCTTTCTCTTTCTTTCTTTTTTATACCTTTCGGAGTCACCTAGTGCAG”, the binding signal is 11500 fluorescence intensity (a.u.).

For “TATCTATTACGAGTTCATTCTCAATCCTGCAATCCTTCAGCGGAGTCACCTAGTGCAG”, the binding signal was 8090 fluorescence intensity (a.u.).

On to “TGGAGCGGGTTTGGGTAGAGCTCCACGTCGCGGTGGGCTTCGGAGTCACCTAGTGCAG”, for which the binding signal was 8880 fluorescence intensity (a.u.).

For “GCCCGGTGAAGCATCCGTACTCACGCTCATCCTCTTCCTCCGGAGTCACCTAGTGCAG”, the binding signal is 8140 fluorescence intensity (a.u.).

For “GCCCTGTCTGCTGCTGCGCACAGTTCTTTTCATCCTTTTCCGGAGTCACCTAGTGCAG”, the binding signal is 8710 fluorescence intensity (a.u.).

For the sequence “GTTCCATCGCATGCTCAACTTGGGGCAGGTCAGGTAAGCTCGGAGTCACCTAGTGCAG”, the binding signal was 8670 fluorescence intensity (a.u.).

For the sequence “AGACCAATTCCTCGCGCCACCTCCACCACCGCCTCCGCCGCGGAGTCACCTAGTGCAG”, the binding signal is 10100 fluorescence intensity (a.u.).

“TTTTGCCAAATTACAGATGCATCTGTTTTGAGTTGTCTTACGGAGTCACCTAGTGCAG”: the binding signal is 8690 fluorescence intensity (a.u.).

As for “TCCATGACAGAGAAAGCAAGGGAAGAATTCTGGGTAATCACGGAGTCACCTAGTGCAG”, the binding signal was 8790 fluorescence intensity (a.u.).

Turning to “CCACAGCGCCTCCACTGCCTGCAGGGACGCCACCGCTACCCGGAGTCACCTAGTGCAG”, the binding signal was 8450 fluorescence intensity (a.u.).

On to “TGCTGCTCATTTGTCCCTGTCTCAACACCCCTTCTATCTACGGAGTCACCTAGTGCAG”, for which the binding signal was 10000 fluorescence intensity (a.u.).

As to “GAGGTAGAAGTGAATCCGACATTTTTTATTTGATGCTTACCGGAGTCACCTAGTGCAG”, the binding signal is 8660 fluorescence intensity (a.u.).

Consider “GCTTCTACAATCGGATGGATTCACCATTGATTCTCGTTTTCGGAGTCACCTAGTGCAG”, for which the binding signal was 8940 fluorescence intensity (a.u.).

For “CAAGTACATTCGAGGCCAGTATTTACACCATCCTCTATGCCGGAGTCACCTAGTGCAG”, the binding signal is 9930 fluorescence intensity (a.u.).

On to “CTCGGTCTTGGTCTTTTCGGTTTGGTCTAAATCTGTCCACCGGAGTCACCTAGTGCAG”, for which the binding signal is 9600 fluorescence intensity (a.u.).

With “CTTATTTTACCTTTTGATGATGCTGTTCCTGTTCTCTCTCCGGAGTCACCTAGTGCAG”, the binding signal was 12000 fluorescence intensity (a.u.).

Turning to “GTCAACCGTCCATAAAAAATTTTCGGCTCCCGCCGTGTTCCGGAGTCACCTAGTGCAG”, the binding signal is 9440 fluorescence intensity (a.u.).
